The record followed here is PMC9144539.

Results are given in words; binding and its absence hold for the method and conditions named. Binding calls can cover weak binding; strength is not graded here. Where a sequence is shown, tags or fusion partners need not be part of it.

The target in assay [1] is T1, GAL4 binding domain fusion of ABI5 (Arabidopsis) (UniProt Q9SJN0).
T1 sequence: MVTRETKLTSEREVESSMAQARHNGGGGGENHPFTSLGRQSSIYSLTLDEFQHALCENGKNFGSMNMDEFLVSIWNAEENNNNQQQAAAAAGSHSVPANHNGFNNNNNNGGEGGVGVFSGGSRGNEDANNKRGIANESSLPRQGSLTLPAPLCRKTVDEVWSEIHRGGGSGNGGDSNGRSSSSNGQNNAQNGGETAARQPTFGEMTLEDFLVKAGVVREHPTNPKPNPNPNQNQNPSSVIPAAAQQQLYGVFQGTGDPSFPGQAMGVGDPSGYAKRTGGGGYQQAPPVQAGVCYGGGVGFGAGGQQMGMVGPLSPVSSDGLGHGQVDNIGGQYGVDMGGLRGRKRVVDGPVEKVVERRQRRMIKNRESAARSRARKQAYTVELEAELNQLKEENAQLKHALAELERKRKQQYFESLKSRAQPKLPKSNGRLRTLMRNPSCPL
As to the kind of experiment: two-hybrid; GAL4 AD fusions (pACT2lox) and GAL4 BD fusions; matings between haploid yeast lines, replica-plated on selective media; growth on -HALW shows activation of the HIS3 and ADE2 reporters.

For assay [2], the target named is T2, GAL4 binding domain fusion of AFP1 (ABI5-binding protein 1) (Arabidopsis) (UniProt Q9LQ98).
T2 sequence: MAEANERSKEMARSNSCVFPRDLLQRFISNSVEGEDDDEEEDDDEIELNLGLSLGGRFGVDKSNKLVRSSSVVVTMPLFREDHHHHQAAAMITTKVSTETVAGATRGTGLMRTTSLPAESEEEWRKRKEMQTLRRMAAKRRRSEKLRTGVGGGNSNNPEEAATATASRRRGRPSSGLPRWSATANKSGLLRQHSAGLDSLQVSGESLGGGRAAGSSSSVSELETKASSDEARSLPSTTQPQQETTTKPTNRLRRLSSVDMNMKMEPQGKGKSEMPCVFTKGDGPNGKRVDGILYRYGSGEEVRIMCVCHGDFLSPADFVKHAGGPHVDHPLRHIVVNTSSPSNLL
The description is as above.

Regarding “GAL4 activation domain fusion of RGL3 (AT5G17490), full length (Arabidopsis)”, the binding entry in assay [1] and in assay [2] was “binds” in each case.
